# Test results: publication PMC5626551
# The chains behind the UniProt entries cited, without tags or fusion partners.
# UniProt P92177: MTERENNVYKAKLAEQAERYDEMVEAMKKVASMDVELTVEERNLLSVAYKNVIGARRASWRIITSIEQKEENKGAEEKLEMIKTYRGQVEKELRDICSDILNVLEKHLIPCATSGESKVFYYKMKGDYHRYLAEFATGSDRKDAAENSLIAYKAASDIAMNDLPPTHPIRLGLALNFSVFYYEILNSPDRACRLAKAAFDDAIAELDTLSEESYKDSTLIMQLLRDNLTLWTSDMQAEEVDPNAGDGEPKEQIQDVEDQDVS
# UniProt Q963E5: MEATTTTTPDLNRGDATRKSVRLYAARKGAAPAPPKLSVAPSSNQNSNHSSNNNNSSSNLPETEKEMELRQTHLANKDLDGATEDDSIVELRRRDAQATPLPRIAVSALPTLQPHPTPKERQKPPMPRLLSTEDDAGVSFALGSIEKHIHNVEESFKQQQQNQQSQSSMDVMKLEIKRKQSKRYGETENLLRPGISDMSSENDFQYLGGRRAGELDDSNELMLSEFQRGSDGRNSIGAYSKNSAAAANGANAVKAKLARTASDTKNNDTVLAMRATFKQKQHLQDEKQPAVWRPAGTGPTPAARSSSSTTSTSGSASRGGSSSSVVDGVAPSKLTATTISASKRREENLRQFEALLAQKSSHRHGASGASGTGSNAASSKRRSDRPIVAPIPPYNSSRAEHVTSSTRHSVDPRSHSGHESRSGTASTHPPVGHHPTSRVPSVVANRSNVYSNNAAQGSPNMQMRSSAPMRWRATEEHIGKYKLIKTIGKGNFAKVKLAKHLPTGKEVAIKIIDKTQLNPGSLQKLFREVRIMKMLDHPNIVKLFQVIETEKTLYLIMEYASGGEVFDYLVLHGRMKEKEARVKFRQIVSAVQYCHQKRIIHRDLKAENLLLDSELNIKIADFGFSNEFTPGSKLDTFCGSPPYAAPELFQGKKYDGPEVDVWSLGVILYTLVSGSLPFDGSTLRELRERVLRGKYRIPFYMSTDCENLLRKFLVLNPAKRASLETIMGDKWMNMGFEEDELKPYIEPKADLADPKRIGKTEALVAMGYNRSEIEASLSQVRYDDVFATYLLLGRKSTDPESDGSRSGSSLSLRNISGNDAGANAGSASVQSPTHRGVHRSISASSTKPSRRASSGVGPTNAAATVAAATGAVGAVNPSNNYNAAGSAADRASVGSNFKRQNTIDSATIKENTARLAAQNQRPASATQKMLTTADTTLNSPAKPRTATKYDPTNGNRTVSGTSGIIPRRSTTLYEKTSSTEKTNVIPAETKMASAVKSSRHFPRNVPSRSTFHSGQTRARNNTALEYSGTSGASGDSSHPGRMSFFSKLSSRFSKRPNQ
# These are yes or no findings as the source states them, for the method shown. Binding seen in cells or lysates may run through a third protein. These calls come from enrichment with a bait or labelling near it, and not all partners need be listed.
# B1: 14-3-3ζ (protein, UniProt P29310 1-248)
# chain: MSTVDKEELVQKAKLAEQSERYDDMAQAMKSVTETGVELSNEERNLLSVAYKNVVGARRSSWRVISSIEQKTEASARKQQLAREYRERVEKELREICYEVLGLLDKYLIPKASNPESKVFYLKMKGDYYRYLAEVATGDARNTVVDDSQTAYQDAFDISKGKMQPTHPIRLGLALNFSVFYYEILNSPDKACQLAKQAFDDAIAELDTLNEDSYKDSTLIMQLLRDNLTLWTSDTQGDEAEPQEGGDN
# B2: endogenous Ncd protein (protein, UniProt P20480 1-700)
# chain: MESRLPKPSGLKKPQMPIKTVLPTDRIRAGLGGGAAGAGAFNVNANQTYCGNLLPPLSRDLNNLPQVLERRGGGARAASPEPMKLGHRAKLRRSRSACDINELRGNKRTAAAPSLPSIPSKVSRLGGALTVSSQRLVRPAAPSSITATAVKRPPVTRPAPRAAGGAAAKKPAGTGAAASSGAAAAAPKRIAPYDFKARFHDLLEKHKVLKTKYEKQTEDMGELESMPQQLEETQNKLIETESSLKNTQSDNECLQRQVKQHTAKIETITSTLGRTKEELSELQAIHEKVKTEHAALSTEVVHLRQRTEELLRCNEQQAAELETCKEQLFQSNMERKELHNTVMDLRGNIRVFCRIRPPLESEENRMCCTWTYHDESTVELQSIDAQAKSKMGQQIFSFDQVFHPLSSQSDIFEMVSPLIQSALDGYNICIFAYGQTGSGKTYTMDGVPESVGVIPRTVDLLFDSIRGYRNLGWEYEIKATFLEIYNEVLYDLLSNEQKDMEIRMAKNNKNDIYVSNITEETVLDPNHLRHLMHTAKMNRATASTAGNERSSRSHAVTKLELIGRHAEKQEISVGSINLVDLAGSESPKTSTRMTETKNINRSLSELTNVILALLQKQDHIPYRNSKLTHLLMPSLGGNSKTLMFINVSPFQDCFQESVKSLRFAASVNSCKMTKAKRNRYLNNSVANSSTQSNNSGSFDK
# Target: GST–14-3-3ε (Drosophila melanogaster) (UniProt P92177)
# Assay: affinity purification with mass spectrometry; recombinant GST–14-3-3ε on glutathione beads, pulldown from ovary or S2 cultured cell extract; gel lanes digested with trypsin, Velos LTQ Orbitrap, MASCOT; only the target purified
molecule,measurement,value
Par-1 (from UniProt Q963E5 1-1058),binding,binds
B1,binding,binds
B2,binding,binds
